{"source": "paper PMC13221179", "target": "Flag-tagged SARS-CoV-2 envelope protein E (SARS-CoV-2) (UniProt P0DTC4)", "assay": "co-IP", "note": "These are yes or no findings as the source states them, for the method shown. In cells and extracts the contact can be indirect. Some entries that bind do so weakly or less than the wild type."}
{"substance": "ubiquitinated s-tag-fused SARS-CoV-2 membrane protein M (from UniProt P0DTC5 1-222)", "values": [{"measurement": "binding", "value": "binds"}]}
